Reference: PubChem BioAssay AID1487 (National Center for Advancing Translational Sciences (NCATS), 2009)
This is one part of the list. Further columns of the screen follow, without active or inactive calls. Compounds called inactive in the main read-out are mostly missing here. Words in brackets tell the shape of the fitted curve; partial curves, single points and poor fits give uncertain potencies.

Experiment: qHTS Assay for Modulators of Lamin A Splicing
Conditions: HeLa LMNA splicing GFP/RFP minigene ratio, 48 h
Procedure, shortened: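 S3 HeLa cells stably expressing lamin A-EGFP splicing minigene plus DsRed2, 600 cells/well, 48 h compound exposure at 37C. Laser-scanning cytometry; analysed as GFP (500-530 nm)/RFP (575-640 nm) total intensity ratio; 0.5% DMSO vehicle.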

[1] = measured here: GFP splicing reporter channel
[2] = measured here: RFP viability control channel

| Compound | AC50 [1] | AC50 [2] |
| --- | --- | --- |
| CNC(=O)C1CCN(Cc2cc3ccccc3n2Cc2ccccc2C)CC1 | 35.5 µM [falling, single point] | 0.0562 µM [falling, full curve, poor fit] |
| Cc1cc(C(F)(F)F)nn2cnnc12 | 5.62 µM [falling, single point] | 2.51 µM [falling, partial curve] |
| CCOCCCNC(=O)CCC(=O)NNc1nc2ccccc2c2nc(-c3ccccc3)nn12 |  | 1.58 µM [rising, partial curve, poor fit] |
| COc1ccccc1C(=O)OCCCN=C1NS(=O)(=O)c2ccccc21 |  | 0.0891 µM [falling, full curve] |
| CC(C)N(C(=O)COC(=O)[C@H](C)NC(=O)c1ccco1)c1ccccc1 | 0.0447 µM [falling, full curve, poor fit] |  |
| S=C(NC1CCCCC1)NN(c1ccccc1)c1ccccc1 | 35.5 µM [rising, single point] | 25.1 µM [rising, partial curve] |
| COc1ccc(C2=[N+](C)CCn3cccc32)c(OC)c1 | 7.94 µM [rising, partial curve] | 14.1 µM [rising, partial curve] |
| Cc1cc(Cl)c(S(=O)(=O)N2CCN(c3ccc(F)cc3)CC2)cc1OCC(=O)NC1CCCCC1 | 0.562 µM [rising, full curve, poor fit] | 0.631 µM [rising, full curve] |
| Cc1cc(C)nc(NC2=NC3CCCCC3N2)n1 (stereo not drawn) | 31.6 µM [rising, single point] | 17.8 µM [rising, single point] |
| Cc1ccc(N2CCN(CCc3nc4cc(NC(=O)c5ccco5)ccc4n3C)CC2)cc1 | 5.62 µM [falling, single point] |  |
| CCOC(=O)c1cnc2c(C)cccc2c1NCCc1ccc(OC)c(OC)c1 |  | 14.1 µM [rising, single point] |
| C=CCNC(=O)/C(C#N)=C/c1c(C)nn(-c2ccc(Cl)cc2)c1Cl |  | 12.6 µM [rising, partial curve, poor fit] |
| Cc1ccc2c(c1)c1c(n2CC(O)Cn2c(C)nc3ccccc32)CCCC1 (stereo not drawn) | 14.1 µM [falling, single point] | 12.6 µM [falling, partial curve] |
| Cc1ccc(NC(=O)Cc2ccc([N+](=O)[O-])cc2)c(Br)c1 |  | 5.01 µM [falling, full curve, poor fit] |
| N#Cc1nc(COc2ccccc2)oc1N1CCC(Cc2ccccc2)CC1 |  | 0.708 µM [rising, full curve] |
| COc1cccc(CNC(=O)CSCc2cnn(-c3ccccc3)c2-n2cccc2)c1 |  | 14.1 µM [rising, single point] |
| O=C(C[n+]1cc(-c2ccccc2)n2c1CCC2)N1c2ccccc2Sc2ccccc21 | 11.2 µM [rising, single point] | 15.8 µM [rising, single point] |
| O=C(/C=C/c1ccco1)NC(=S)Nc1cccc(-c2nc3ccccc3o2)c1 | 5.62 µM [falling, full curve] | 7.08 µM [falling, partial curve] |
| CCOc1ccc(N=C(NN)c2ccc3ccccc3n2)cc1 | 3.55 µM [rising, partial curve] | 12.6 µM [rising, partial curve] |
| Fc1ccccc1Sc1ccccc1CNC1=NCCN1 | 17.8 µM [rising, partial curve, poor fit] | 14.1 µM [rising, partial curve] |
| COc1ccccc1N1CCN(C(=O)c2cnn(-c3ccc(C)c(C)c3)c2C2CCN(C(=O)OC(C)(C)C)CC2)CC1 |  | 31.6 µM [rising, single point] |
| Cn1c(=O)n(Cc2ccc(F)cc2)c(=O)c2c1nc1n2CCCN1Cc1ccccc1 |  | 11.2 µM [rising, partial curve, poor fit] |
| C/C(=N\NC(=S)NCCc1ccccc1)c1cccs1 |  | 11.2 µM [rising, partial curve] |
| C=C(C)c1cccc(C(C)(C)NC(=O)Nc2ccc(C)cn2)c1 |  | 35.5 µM [rising, single point] |
| CCOc1ccc(S(=O)(=O)N(CC(=O)NC2CCCCC2C)Cc2ccco2)cc1 (stereo not drawn) | 8.91 µM [rising, partial curve] | 15.8 µM [rising, single point] |
| CCOC(=O)c1c(C)oc2ncnc(NCCCN3CCN(c4cc(C)ccc4C)CC3)c12 | 15.8 µM [falling, single point] | 20 µM [falling, single point] |
| CCCOc1ccc(C(=O)N(Cc2cccs2)c2ccc(C)cc2)cc1 | 2.51 µM [falling, partial curve] | 4.47 µM [falling, partial curve] |
| COc1cccc(NS(=O)(=O)c2ccc(Br)s2)c1 |  | 14.1 µM [rising, single point] |

A second format for 2 compounds above.
Compound	AC50 [1]	AC50 [2]
Cc1cc(Cl)c(S(=O)(=O)N2CCN(c3ccc(F)cc3)CC2)cc1OCC(=O)NC1CCCCC1	0.562 µM [rising, full curve, poor fit]	0.631 µM [rising, full curve]
C/C(=N\NC(=S)NCCc1ccccc1)c1cccs1		11.2 µM [rising, partial curve]

Remaining list, next part

| Compound | AC50 [1] | AC50 [2] |
| --- | --- | --- |
| COc1cccc(N(C)C(=S)Oc2ccc3c(c2)CCCC3)n1 | 12.6 µM [rising, partial curve, poor fit] | 7.94 µM [rising, partial curve] |
| CC1(C)CC(N2CCCC2)=CC(=[N+]2CCCC2)C1 |  | 20 µM [rising, single point] |
| COCCNc1cc(C)c(C#N)c2nc3ccccc3n12 |  | 1.41 µM [rising, full curve] |
| CCc1cc(-c2n[nH]c(=S)n2CC(C)C)cs1 | 11.2 µM [rising, single point] | 31.6 µM [rising, single point] |
| CCOC(=O)c1c(C)[nH]c(C(=O)C(C)Cl)c1C (stereo not drawn) |  | 5.01 µM [rising, full curve, poor fit] |
| Cc1ccc(S(=O)(=O)CCc2nc3ccccc3n2CCC#N)cc1 |  | 11.2 µM [rising, partial curve] |
| CCCCN(C)C(=O)C(Cc1ccccc1)NS(=O)(=O)c1ccc2c(c1)CCC(=O)N2 (stereo not drawn) | 25.1 µM [falling, single point] | 25.1 µM [falling, partial curve] |
| CCOc1ccc2[nH]c(=O)c(CN(Cc3cccs3)Cc3nnnn3C(C)(C)C)cc2c1 | 15.8 µM [rising, partial curve, poor fit] | 15.8 µM [rising, single point] |
| c1cncc(-c2nnc(-c3cccnc3)nn2)c1 |  | 35.5 µM [rising, single point] |
| Cc1cccc(N2CCN(C(=O)C3CCN(S(=O)(=O)c4cccc5nsnc45)CC3)CC2C)c1 (stereo not drawn) | 6.31 µM [rising, partial curve, poor fit] | 10 µM [rising, partial curve] |
| CN(C)c1nccc(N(Cc2ccccc2)Cc2ccccc2)c1C#N |  | 15.8 µM [falling, single point] |
| COc1cccc(C(=O)NNC(=O)Cc2cccs2)c1 | 0.447 µM [rising, single point] |  |
| Cc1ccc(NC(=O)Nc2ccc3nc(N4CCN(C)CC4)cc(C)c3c2)cc1C | 15.8 µM [falling, partial curve] | 25.1 µM [falling, single point] |
| Cc1ccc(-n2nnnc2-c2cnn(-c3cccc(F)c3)c2C(F)(F)F)cc1 | 20 µM [rising, single point] | 22.4 µM [rising, single point] |
| CCOc1ccc(CC(=O)OCn2nnc3ccccc3c2=O)cc1 | 3.16 µM [rising, partial curve, poor fit] |  |
| COc1ccc(S(=O)(=O)n2nc(-c3cc(OC)c(OC)c(OC)c3)cc2N)cc1OC |  | 15.8 µM [rising, single point] |
| Cc1ccccc1NC(=S)N1CCN(C(=O)c2ccco2)CC1 |  | 0.891 µM [rising, full curve, poor fit] |
| CCc1nnc(NC(=O)c2ccc(N(C)S(=O)(=O)c3ccccc3)cc2)s1 |  | 11.2 µM [rising, partial curve] |
| COc1ccc(-c2n[nH]c(C)c2-c2ccc(Cl)cc2)c(O)c1OC |  | 31.6 µM [rising, single point] |
| Cn1nnnc1SCC(=O)N1CCc2ccccc2C1 |  | 0.794 µM [rising, full curve, poor fit] |
| Cn1nc(C(F)(F)F)c(-c2ccccc2)c1NC(=O)c1cccnc1 |  | 35.5 µM [falling, single point] |
| CCOC(=O)c1cccc2c(=O)c(C(=O)c3ccc(Cl)cc3)c(C(=O)OC)[nH]c12 |  | 35.5 µM [rising, single point] |
| C=CCOC(=O)C1=C(C)NC(C)=C(C(=O)OCC=C)C1/C=C/c1ccccc1 | 35.5 µM [falling, partial curve, poor fit] | 35.5 µM [falling, partial curve, poor fit] |
| O=C(NCc1ccc(Cl)cc1)C1CCN(S(=O)(=O)c2ccc3c(c2)CCCN3C(=O)C2CCC2)CC1 |  | 0.562 µM [falling, single point] |
| CC(C)(C)c1ccc(S(=O)(=O)N2CCN(C(=O)c3cc(-c4ccc(Br)cc4)n[nH]3)CC2)cc1 | 12.6 µM [falling, single point] | 10 µM [falling, partial curve, poor fit] |
| CC(C)CC(NC(=O)CCl)c1ccccc1 (stereo not drawn) |  | 35.5 µM [rising, single point] |
| Cc1ccccc1C(=O)c1cccn1CC(=O)NCCN1CCN(c2cccc(C)c2C)CC1 |  | 14.1 µM [rising, partial curve] |

A section of the results above:

| Compound | AC50 [1] | AC50 [2] |
| --- | --- | --- |
| COc1cccc(N(C)C(=S)Oc2ccc3c(c2)CCCC3)n1 | 12.6 µM [rising, partial curve, poor fit] | 7.94 µM [rising, partial curve] |
| CC1(C)CC(N2CCCC2)=CC(=[N+]2CCCC2)C1 |  | 20 µM [rising, single point] |
